# Test results taken from PubChem BioAssay AID445 (National Center for Advancing Translational Sciences (NCATS), 2006).
# “And” between values parts separate entries of the source, which are not always exact repeats. Equal entries are not always repeated. This is one part of the list. The main result of the screen is listed elsewhere. These columns were measured beside it and carry no call. The list favours compounds with an active or inconclusive main result. Potencies come from curve fits of mixed quality, noted in brackets.
# Experiment: IkB Signaling
# Conditions: ABC-DLBCL IkBa-CBG/CBR dual luciferase ratio (green luciferase fused to IkBa over red control in OCI-Ly3 lymphoma cells), 4 h
# Method in brief: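 In this assay, an IκBα–CBG68 fusion accumulates when IKK-driven degradation is blocked; native CBR normalizes for cell number. OCI-Ly3 cells were treated 4 h with compound and doxycycline, then green and red light read after Chroma-Glo addition.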
# [1] = measured here: control luc red channel unless noted
compound,measurement,setting,value
COc1ccc(-c2cc(C(=O)Nc3cnn(Cc4ccccc4C)c3)no2)cc1OC,AC50,[1],"3.98 µM [falling, partial curve]"
COc1cccc(CNC(=O)c2ccc3nc(-c4ccccc4)c(-c4ccccc4)nc3c2)c1OC,AC50,[1],"7.94 µM [falling, partial curve]"
CCC1CCCCN1C(=O)CSc1nnc(-c2c[nH]c3ccccc23)o1 (stereo not drawn),AC50,[1],"31.6 µM [falling, single point]"
Cc1cc(C)n(-c2nc3ccccc3n3nnnc23)n1,AC50,[1],"3.98 µM [falling, partial curve]"
CCc1nnc(SCc2nc(-c3cccc(Cl)c3)oc2C)c2cc3sc(C)cc3n12,AC50,[1],"0.501 µM [rising, full curve]"
O=C1CN(C(=O)CCCc2c[nH]c3ccccc23)c2ccccc2N1,AC50,[1],"25.1 µM [falling, partial curve]"
COc1ccc(Cl)cc1NC(=O)CCn1c(=O)c2cccn2c2ccccc21,AC50,[1],"12.6 µM [falling, partial curve]"
Cc1ccccc1C(=O)NCc1nc(-c2ccc(Cl)cc2)no1,AC50,[1],"0.794 µM [rising, full curve]"
Cc1ccc(NC(=O)c2c(C)nc3sc(C(=O)Nc4ccc(F)cc4)c(N)c3c2-c2ccc(Cl)cc2)c(C)c1,AC50,[1],"3.16 µM [falling, partial curve]"
Cc1cccc(CN2C(=O)c3ccccc3S(=O)(=O)c3ccc(C(=O)N(C)Cc4ccccc4)cc32)c1,AC50,[1],"10 µM [falling, partial curve]"
OC(c1cccc(OCc2ccccc2)c1)c1nnc(-c2ccccc2)o1 (stereo not drawn),AC50,[1],"20 µM [falling, partial curve]"
Cc1ccc(Nc2c(-c3ccc(N4CCOCC4)cc3)nc3cccc(C)n23)cc1,AC50,[1],"0.0501 µM [falling, full curve, poor fit]"
COc1cc2c(cc1OC)-c1cc(Nc3ccc4c(c3)OCCO4)nc(=O)n1CC2,AC50,[1],"2 µM [falling, full curve]"
CCC1C(O)=C(c2ccccn2)C(=N)N1c1ccccc1 (stereo not drawn),AC50,[1],"1.58 µM [falling, full curve, poor fit]"
CCOC(=O)c1ccc(NC2(c3ccccc3)C(=O)c3ccccc3C2=O)cc1,AC50,[1],"20 µM [falling, single point]"
COc1cccc(Cn2c(Oc3cccc(C)c3)nc3c2c(=O)n(C)c(=O)n3C)c1,AC50,[1],"25.1 µM [falling, partial curve]"
CCOC(=O)c1ccc(NC(=O)c2sc3ccccc3c2Cl)cc1,AC50,[1],"0.0316 µM [falling, full curve]"
Cc1ccc(-c2cc(-c3ccc(Cl)cc3)c(C#N)c(N)n2)o1,AC50,[1],"10 µM [falling, partial curve]"
O=c1c2ccccc2n(Cc2cccc(Cl)c2)c(=O)n1CCc1ccccc1,AC50,[1],"39.8 µM [falling, single point]"
CC(=O)NCCc1nc2ccccc2n1CCCCOc1ccc(Cl)cc1,AC50,[1],"15.8 µM [falling, partial curve]"
COc1cccc2cc(-c3nc4sc(C(=O)Nc5ccc(F)cc5F)c(C)c4c(=O)[nH]3)c(=O)oc12,AC50,[1],"5.01 µM [rising, partial curve]"
O=C(Nc1nnc(C2CC2)s1)c1cc(-c2ccccc2)nn1-c1ccccc1,AC50,[1],"20 µM [falling, partial curve]"
Cc1ccc(C)c(N2CCN(c3ncnc4onc(C)c34)CC2)c1,AC50,[1],"25.1 µM [falling, partial curve]"
COc1ccccc1CCNC(=O)Cc1c(C)c2ccc(O)cc2oc1=O,AC50,[1],"12.6 µM [falling, partial curve]"
CC(=O)Nc1nonc1-c1nnc(SCC(=O)Nc2cc(C)ccc2C)n1-c1ccccc1,AC50,[1],"3.16 µM [falling, single point]"
Cc1cccc(CC(=O)NC2CC(=O)N(c3cccc(F)c3)C2)c1 (stereo not drawn),AC50,[1],"0.794 µM [falling, partial curve]"
O=C(NC(Cc1ccccc1)c1nc2ccccc2[nH]1)C1CC(=O)N(c2ccc3c(c2)OCCO3)C1 (stereo not drawn),AC50,[1],"15.8 µM [falling, partial curve]"
COc1ccc(OC)c(NC(=O)C2CCN(S(=O)(=O)c3ccc(C)cc3)CC2)c1,AC50,[1],"1.26 µM [falling, full curve]"
COCCNC(=O)CSc1nc(-c2ccc(F)cc2)[nH]c1-c1ccc(Cl)cc1,AC50,[1],"20 µM [falling, single point]"
Cc1cc(C)cc(OCC(=O)Nc2cccc(-c3nc4ncccc4o3)c2)c1,AC50,[1],"5.01 µM [falling, full curve]"
CCOc1ccc(C(=O)Nc2ccc(S(=O)(=O)N(Cc3ccccc3)c3ccccc3)cc2)cc1,AC50,[1],"1.26 µM [falling, full curve, poor fit]"
O=C(c1ccco1)N1CCN(c2ncnc3sc4c(c23)CCC4)CC1,AC50,[1],"25.1 µM [falling, partial curve]"
O=C(CSc1nc2cc3ccccc3cc2[nH]1)Nc1cccc(C(F)(F)F)c1,AC50,[1],"20 µM [falling, single point]"
COc1ccc(NC(=O)C(=O)NCCc2ccccc2)cc1OC,AC50,[1],"10 µM [rising, partial curve]"
CN1/C(=C\C(=O)c2ccco2)C(C)(C)c2ccccc21,AC50,[1],"25.1 µM [falling, single point]"
CC(C)c1ccc(NC(=O)C2CCCN(S(=O)(=O)c3ccc(Br)s3)C2)cc1 (stereo not drawn),AC50,[1],"31.6 µM [falling, partial curve, poor fit]"
CCc1ccc(NS(=O)(=O)c2ccc3[nH]cc(C(=O)NC4CCCC4)c(=O)c3c2)cc1,AC50,[1],"10 µM [falling, partial curve]"
COc1ccc(-n2cc(-c3ccccc3)c3c(SC(C)C(C)=O)ncnc32)cc1 (stereo not drawn),AC50,[1],"10 µM [falling, partial curve]"
Fc1ccc(-c2cc(-c3nc(-c4cccc(Cl)c4)no3)[nH]n2)cc1,AC50,[1],"0.251 µM [falling, full curve]"
CCOC(=O)c1c(N)sc(C(=O)Nc2ccc3c(c2)OCO3)c1C,AC50,[1],"10 µM [falling, partial curve]"
COc1cc(OC)c(OC)cc1CN1CCc2nc(N3CCN(c4ncccn4)CC3)ncc2C1,AC50,[1],"15.8 µM [falling, partial curve, poor fit]"
CCN1CCN(C(=O)c2ccc3c(c2)N(Cc2cccc(Cl)c2)C(=O)c2ccccc2S3(=O)=O)CC1,AC50,[1],"10 µM [falling, partial curve]"
COc1ccc(-c2noc(C3CC(=O)N(c4ccc(C)c(F)c4)C3)n2)c(OC)c1 (stereo not drawn),AC50,[1],"39.8 µM [falling, single point]"
O=C(Nc1ccc(C(F)(F)F)cc1)C1CCCN1S(=O)(=O)c1cccc2cccnc12 (stereo not drawn),AC50,[1],"12.6 µM [falling, partial curve]"
Cc1cc(C)n(-c2nnc(C)n2/N=C/c2cc(Br)ccc2OCc2ccccc2)n1,AC50,[1],"10 µM [falling, partial curve]"
COc1ccc(-c2nnc(Nc3ccc(OCC(N)=O)cc3)c3ccccc23)cc1,AC50,[1],"20 µM [falling, single point]"
O=C(CSc1nc(=O)[nH]c2c1CCCC2)Nc1cc(C(F)(F)F)ccc1Cl,AC50,[1],"31.6 µM [falling, single point]"
COc1cc([C@H]2c3cc4c(cc3[C@@H](O)[C@@H]3COC(=O)[C@H]23)OCO4)cc(OC)c1OC,AC50,measured here: IkB-luc green channel,"31.6 nM [rising, full curve] and 25.1 nM [rising, full curve]"
same,AC50,measured here: control luc red channel,"15.8 nM [rising, full curve] and 20 nM [rising, full curve]"
Cc1cc(C)n(-c2nc3ccccc3nc2Nc2cccc(C(F)(F)F)c2)n1,AC50,[1],"10 µM [falling, partial curve]"
O=C1CCSC2(C(=O)N(Cc3ccc(F)cc3)c3ccccc32)N1c1ccccc1 (stereo not drawn),AC50,[1],"31.6 µM [falling, partial curve]"
O=C(c1ccc(COc2ccccc2Cl)o1)N1CCN(Cc2ccc3c(c2)OCO3)CC1,AC50,[1],"15.8 µM [falling, partial curve]"
Cc1nc2cc(-c3cccc(F)c3)nn2c(C)c1CCC(=O)NC1CCCCC1,AC50,[1],"0.251 µM [falling, full curve]"
COc1ccc(C(=O)CCC(=O)Nc2cccc(C(C)=O)c2)cc1,AC50,[1],"31.6 µM [falling, single point]"
Cc1ccc(Cn2c(=O)n(Cc3ccc(Cl)cc3)c(=O)c3cccnc32)cc1,AC50,[1],"0.316 µM [rising, partial curve]"
Cc1cc2oc(C(=O)Nc3nc(-c4ccccc4)ns3)c(C)c2cc1Cl,AC50,[1],"39.8 µM [falling, single point]"
CC(=O)c1ccc(NS(=O)(=O)c2ccc3[nH]c4c(c3c2)CCCCCC4)cc1,AC50,[1],"39.8 µM [falling, single point]"
CN1CCN(CCCN2c3ccccc3Sc3ccc(Cl)cc32)CC1,AC50,[1],"15.8 µM [falling, partial curve, poor fit] [measured here: IkB-luc green channel]"
CCCCN(C)CCNC(=O)C1CCN(c2nc3ccc(CC)cc3s2)CC1,AC50,[1],"15.8 µM [falling, partial curve]"
COc1ccc(N2CCN(C(=O)c3cccc(Cn4cc(Cl)cn4)c3)CC2)cc1,AC50,[1],"12.6 µM [falling, partial curve]"
Cc1ccc(C)n1-n1c(C)nc2sc3c(c2c1=O)CCCCC3,AC50,[1],"31.6 µM [falling, single point]"
CCOC(=O)c1ccc(Nc2cc(C)nc(N3CCOCC3)n2)cc1,AC50,[1],"12.6 µM [falling, partial curve]"
COc1ccc(C(c2c(O)cc(C)n(Cc3ccco3)c2=O)N2CCN(c3ccccc3)CC2)cc1 (stereo not drawn),AC50,[1],"15.8 µM [falling, partial curve]"

# Four entries from above in a different format.
compound | measurement | setting | value
COc1cc2c(cc1OC)-c1cc(Nc3ccc4c(c3)OCCO4)nc(=O)n1CC2 | AC50 | [1] | 2 µM [falling, full curve]
CCC1C(O)=C(c2ccccn2)C(=N)N1c1ccccc1 (stereo not drawn) | AC50 | [1] | 1.58 µM [falling, full curve, poor fit]
CCOC(=O)c1ccc(NC2(c3ccccc3)C(=O)c3ccccc3C2=O)cc1 | AC50 | [1] | 20 µM [falling, single point]
COc1cccc(Cn2c(Oc3cccc(C)c3)nc3c2c(=O)n(C)c(=O)n3C)c1 | AC50 | [1] | 25.1 µM [falling, partial curve]
